# Results published in the supplement of paper PMC8728848.
# The list shows a part of the results.
# B1: Epa2 (Candida glabrata) (protein)
# chain: MGSSHHHHHHSSGLVPRGSHMASSKDPTSFPMGCSPQVLKTQPGLAVKLYSYGHPVPGCAYNTYQYPDFPRSGYKKERKLADITGVNGRIDIDLKPNDPCRVLSGNLPSNYNYQNTLTYTNFTMILYGYFQPKVTGYHTFNLEADDLLFMNLGAGNAFDCCRAESTLDNFGNYQSYSIWGTDKATADLTVFLVSGIYYPIRLFYVNRDNNAVLDFSFSTEFNKEIIHDFTSYFFSASDEEQCPGNI
# Experiments:
# Assay in all cases: glycan array binding signal (z-score within array); higher = stronger binding
# Settings in all cases: glycan notation: IUPAC condensed, linker removed
# [1] = target: Neu5Ac(a2-6)Gal(b1-4)GlcNAc(b1-3)Gal(b1-4)GlcNAc(b1-3)Gal(b1-4)GlcNAc(b1-2)Man(a1-3)[Neu5Ac(a2-6)Gal(b1-4)GlcNAc(b1-3)Gal(b1-4)GlcNAc(b1-3)Gal(b1-4)GlcNAc(b1-2)Man(a1-6)]GalNAc
# Method in brief: (§1)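 Columns mapping to the same glycan were averaged after glycan names were converted to IUPAC-condensed notation. The data come from 3228 arrays in the Consortium for Functional Glycomics database, limited to those with an available protein sequence. Binding is reported as a within-array Z-score averaged across arrays of one protein sequence and across linkers.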
# [2] = target: Neu5Ac(a2-6)Gal(b1-4)GlcNAc(b1-3)Gal(b1-4)GlcNAc(b1-3)GalNAc
# Method in brief: as §1
# [3] = target: Neu5Ac(a2-6)Gal(b1-4)GlcNAc(b1-3)Gal(b1-4)GlcNAc(b1-3)[Neu5Ac(a2-6)Gal(b1-4)GlcNAc(b1-3)Gal(b1-4)GlcNAc(b1-6)]GalNAc
# Method in brief: as §1
# [4] = target: Neu5Ac(a2-6)Gal(b1-4)GlcNAc(b1-3)Gal(b1-4)GlcNAc(b1-6)[Gal(b1-3)]GalNAc
# Method in brief: as §1
# [5] = target: Neu5Ac(a2-6)Gal(b1-4)GlcNAc(b1-3)Gal(b1-4)[Fuc(a1-3)]GlcNAc(b1-3)Gal(b1-4)[Fuc(a1-3)]GlcNAc
# Method in brief: as §1
# [6] = target: Neu5Ac(a2-6)Gal(b1-4)GlcNAc(b1-3)GalNAc
# Method in brief: as §1
# [7] = target: Neu5Ac(a2-6)Gal(b1-4)GlcNAc(b1-3)[Neu5Ac(a2-6)Gal(b1-4)GlcNAc(b1-6)]GalNAc
# Method in brief: as §1
# [8] = target: Neu5Ac(a2-6)Gal(b1-4)GlcNAc(b1-6)GalNAc
# Method in brief: as §1
# [9] = target: Neu5Ac(a2-6)Gal(b1-4)GlcNAc(b1-6)[Gal(b1-3)GlcNAc(b1-3)]Gal(b1-4)Glc
# Method in brief: as §1
# [10] = target: Neu5Ac(a2-6)Gal(b1-4)GlcNAc(b1-6)[Gal(b1-3)]GalNAc
# Method in brief: as §1
# [11] = target: Neu5Ac(a2-6)Gal(b1-4)GlcNAc6S
# Method in brief: as §1
# Neu5Ac(a2-6)GalNAc = target: Neu5Ac(a2-6)GalNAc
# Method in brief: as §1
# [12] = target: Neu5Ac(a2-6)GalNAc(b1-4)GlcNAc
# Method in brief: as §1
# [13] = target: Neu5Ac(a2-6)GalNAc(b1-4)GlcNAc6S
# Method in brief: as §1
# [14] = target: Neu5Ac(a2-6)GlcNAc(b1-4)GlcNAc
# Method in brief: as §1
# [15] = target: Neu5Ac(a2-6)GlcNAc(b1-4)GlcNAc(b1-4)GlcNAc
# Method in brief: as §1
# Neu5Ac(a2-8)Neu5Ac = target: Neu5Ac(a2-8)Neu5Ac
# Method in brief: as §1
# [16] = target: Neu5Ac(a2-8)Neu5Ac(a2-3)Gal(b1-3)GalNAc(b1-4)[Neu5Ac(a2-3)]Gal(b1-4)Glc
# Method in brief: as §1
# [17] = target: Neu5Ac(a2-8)Neu5Ac(a2-3)Gal(b1-3)GalNAc(b1-4)[Neu5Ac(a2-8)Neu5Ac(a2-3)]Gal(b1-4)Glc
# Method in brief: as §1
# [18] = target: Neu5Ac(a2-8)Neu5Ac(a2-3)Gal(b1-4)Glc
# Method in brief: as §1
# [19] = target: Neu5Ac(a2-8)Neu5Ac(a2-3)Gal(b1-4)GlcNAc
# Method in brief: as §1
# [20] = target: Neu5Ac(a2-8)Neu5Ac(a2-3)[Gal(b1-3)GalNAc(b1-4)]Gal(b1-4)Glc
# Method in brief: as §1
# [21] = target: Neu5Ac(a2-8)Neu5Ac(a2-3)[GalNAc(b1-4)]Gal(b1-4)Glc
# Method in brief: as §1
# [22] = target: Neu5Ac(a2-8)Neu5Ac(a2-8)Neu5Ac
# Method in brief: as §1
# [23] = target: Neu5Ac(a2-8)Neu5Ac(a2-8)Neu5Ac(a2-3)Gal(b1-4)Glc
# Method in brief: as §1
# [24] = target: Neu5Ac(a2-8)Neu5Ac(a2-8)Neu5Ac(a2-3)[Gal(b1-3)GalNAc(b1-4)]Gal(b1-4)Glc
# Method in brief: as §1
# [25] = target: Neu5Ac(a2-8)Neu5Ac(a2-8)Neu5Ac(a2-3)[GalNAc(b1-4)]Gal(b1-4)Glc
# Method in brief: as §1
# [26] = target: Neu5Ac(a2-8)Neu5Ac(a2-8)Neu5Ac(a2-8)Neu5Ac(a2-3)[GalNAc(b1-4)]Gal(b1-4)Glc
# Method in brief: as §1
# [27] = target: Neu5Ac(a2-8)Neu5Gc(a2-3)Gal(b1-4)GlcNAc
# Method in brief: as §1
# [28] = target: Neu5Ac(b2-6)Gal(b1-4)GlcNAc
# Method in brief: as §1
# Neu5Ac(b2-6)GalNAc = target: Neu5Ac(b2-6)GalNAc
# Method in brief: as §1
# [29] = target: Neu5Ac9Ac(a2-3)Gal(b1-3)GlcNAc
# Method in brief: as §1
# [30] = target: Neu5Ac9Ac(a2-3)Gal(b1-4)GlcNAc
# Method in brief: as §1
# [31] = target: Neu5Ac9Ac(a2-6)Gal(b1-4)GlcNAc
# Method in brief: as §1
# [32] = target: Neu5Gc(a2-3)Gal(b1-3)GlcNAc
# Method in brief: as §1
# [33] = target: Neu5Gc(a2-3)Gal(b1-3)[Fuc(a1-4)]GlcNAc
# Method in brief: as §1
# Neu5Gc(a2-3)Gal(b1-4)Glc = target: Neu5Gc(a2-3)Gal(b1-4)Glc
# Method in brief: as §1
# [34] = target: Neu5Gc(a2-3)Gal(b1-4)GlcNAc
# Method in brief: as §1
# [35] = target: Neu5Gc(a2-3)Gal(b1-4)GlcNAc(b1-3)Gal(b1-4)GlcNAc(b1-2)Man(a1-3)[Neu5Gc(a2-3)Gal(b1-4)GlcNAc(b1-3)Gal(b1-4)GlcNAc(b1-2)Man(a1-6)]Man(b1-4)GlcNAc(b1-4)GlcNAc
# Method in brief: as §1
# [36] = target: Neu5Gc(a2-3)Gal(b1-4)[Fuc(a1-3)]GlcNAc
# Method in brief: as §1
# [37] = target: Neu5Gc(a2-6)Gal(b1-4)GlcNAc
# Method in brief: as §1
# Neu5Gc(a2-6)GalNAc = target: Neu5Gc(a2-6)GalNAc
# Method in brief: as §1
# [38] = target: Neu5Gc(a2-8)Neu5Ac(a2-3)Gal(b1-4)GlcNAc
# Method in brief: as §1
# [39] = target: Neu5Gc(a2-8)Neu5Gc(a2-3)Gal(b1-4)GlcNAc
# Method in brief: as §1
# [40] = target: Neu5Gc(a2-8)Neu5Gc(a2-3)Gal(b1-4)GlcNAc(b1-3)Gal(b1-4)GlcNAc
# Method in brief: as §1
# [41] = target: Neu5Gc(a2-8)Neu5Gc(a2-6)Gal(b1-4)GlcNAc
# Method in brief: as §1
# [42] = target: Neu5Gc(b2-6)Gal(b1-4)GlcNAc
# Method in brief: as §1
binder,measurement,setting,value
B1,glycan array binding signal (z-score),[1],1.69
same,glycan array binding signal (z-score),[2],0.583
same,glycan array binding signal (z-score),[3],1.24
same,glycan array binding signal (z-score),[4],0.139
same,glycan array binding signal (z-score),[5],-0.274
same,glycan array binding signal (z-score),[6],-0.195
same,glycan array binding signal (z-score),[7],-0.035
same,glycan array binding signal (z-score),[8],0.191
same,glycan array binding signal (z-score),[9],-0.142
same,glycan array binding signal (z-score),[10],0.36
same,glycan array binding signal (z-score),[11],-0.614
same,glycan array binding signal (z-score),Neu5Ac(a2-6)GalNAc,-1.06
same,glycan array binding signal (z-score),[12],-1.3
same,glycan array binding signal (z-score),[13],0.429
same,glycan array binding signal (z-score),[14],-0.471
same,glycan array binding signal (z-score),[15],-0.626
same,glycan array binding signal (z-score),Neu5Ac(a2-8)Neu5Ac,-0.019
same,glycan array binding signal (z-score),[16],0.561
same,glycan array binding signal (z-score),[17],0.192
same,glycan array binding signal (z-score),[18],-0.394
same,glycan array binding signal (z-score),[19],-1.36
same,glycan array binding signal (z-score),[20],-0.589
same,glycan array binding signal (z-score),[21],-0.122
same,glycan array binding signal (z-score),[22],-0.29
same,glycan array binding signal (z-score),[23],-0.288
same,glycan array binding signal (z-score),[24],0.479
same,glycan array binding signal (z-score),[25],0.151
same,glycan array binding signal (z-score),[26],-0.235
same,glycan array binding signal (z-score),[27],-1.11
same,glycan array binding signal (z-score),[28],-1
same,glycan array binding signal (z-score),Neu5Ac(b2-6)GalNAc,-1.13
same,glycan array binding signal (z-score),[29],-0.352
same,glycan array binding signal (z-score),[30],-0.074
same,glycan array binding signal (z-score),[31],-0.169
same,glycan array binding signal (z-score),[32],-0.205
same,glycan array binding signal (z-score),[33],-0.221
same,glycan array binding signal (z-score),Neu5Gc(a2-3)Gal(b1-4)Glc,0.273
same,glycan array binding signal (z-score),[34],-0.248
same,glycan array binding signal (z-score),[35],-0.315
same,glycan array binding signal (z-score),[36],-0.382
same,glycan array binding signal (z-score),[37],0.077
same,glycan array binding signal (z-score),Neu5Gc(a2-6)GalNAc,0.107
same,glycan array binding signal (z-score),[38],-0.775
same,glycan array binding signal (z-score),[39],0.049
same,glycan array binding signal (z-score),[40],-0.688
same,glycan array binding signal (z-score),[41],-0.989
same,glycan array binding signal (z-score),[42],-0.027

# Two entries picked at random from the list so far:
binder,measurement,setting,value
B1,glycan array binding signal (z-score),[8],0.191
same,glycan array binding signal (z-score),[29],-0.352
